Data: PubChem BioAssay AID2685 (National Center for Advancing Translational Sciences (NCATS), 2010)
The list shows a part of the results. Further columns of the screen follow, without active or inactive calls. The list favours compounds with an active or inconclusive main result. Potencies come from curve fits of mixed quality, noted in brackets.

Assay: qHTS Assay for Lipid Storage Modulators in Drosophila S3 Cells;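 on cell number change: cells counted by Cell Tracker Red CMTPX staining in the red channel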
Settings: BODIPY lipid droplet fluorescence, 18-24 h; for cell number change: measured here: cell count max response, cells fed with added oleic acid
Outline: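 Laser-scanning cytometry quantifies lipid droplet accumulation (500–530 nm total intensity; droplet/cell object ratio) in oleic acid-fed (400 uM added) Drosophila S3 cells treated with a concentration series. 20 uM Triacsin C defined 100% inhibition.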

[1] = measured here: lipid fluorescence (Fed channel) AC50, cells fed with added oleic acid
[2] = measured here: cell number channel AC50, cells fed with added oleic acid

Compound | cell number change [%] | AC50 [1] | AC50 [2]
CC1CC(C)CN(CCCOc2ccccc2[N+](=O)[O-])C1 (centres undefined) | 16.1 | 0.92 µM [rising, full curve, poor fit] | 
COc1ccc(-c2nc(SC(C)C(=O)NCC3CCCO3)n[nH]2)cc1 (centres undefined) | 55.9 |  | 16.4 µM [rising, single point]
CCNC(=S)N(CCO)Cc1cc2cc3c(cc2[nH]c1=O)OCO3 | -5.47 | 29.1 µM [falling, single point] | 
COC(=O)c1ccccc1NC(=O)c1noc2c1CCC2 | 52.4 | 10.3 µM [rising, partial curve] | 4.11 µM [rising, full curve]
C/C(=N\NC(=O)C1CC1(c1ccccc1)c1ccccc1)c1cccc([N+](=O)[O-])c1 (centres undefined) | 0.41 |  | 
C#CCOCCOCCOCCNc1nc(N2CCN(C(=O)CCCCCCCCCCNC(=O)Cn3cc(C[C@@H](C)O)nn3)CC2)nc(N2CCN(C(=O)CCCCCCCCCCNC(=O)[C@@H]([C@H](C)CC)n3cc(CCCCCN)nn3)CC2)n1 | -86.1 | 0.164 µM [falling, full curve, poor fit] | 29.1 µM [falling, single point]
CCOc1cc(CNCc2ccncc2)cc(Cl)c1OC | 22.2 | 29.1 µM [rising, single point] | 
NS(=O)(=O)c1ccc(CCNC(=O)C2CCN(c3ncnc4c3nc3n4CCCCC3)CC2)cc1 | 42.2 | 14.6 µM [rising, partial curve] | 
N#CCCCn1c(O)c(N=NC(=O)C(O)c2ccccc2)c2ccccc21 (centres undefined) | 21.9 | 18.4 µM [rising, single point] | 2.06 µM [rising, full curve, poor fit]
COc1cc(OC)c(-c2nc3c[n+](CC(=O)c4ccccc4)ccc3n2C)cc1OC | -90.2 |  | 32.6 µM [falling, single point]
Cc1nc(SCc2ccccc2)[nH]c(=O)c1CC(=O)OCC(C)C | 5.56 | 29.1 µM [falling, partial curve, poor fit] | 
Cc1ccc(C(C)C)c(OCc2ccc(C(=O)N/N=C/c3cccc(O)c3O)cc2)c1 | -70.4 | 6.51 µM [falling, full curve] | 16.4 µM [falling, partial curve]
COc1ccccc1C(=O)NC1CCN(C(=O)Nc2ccc(F)cc2)CC1 | 50.5 |  | 0.58 µM [rising, partial curve, poor fit]
CCOc1ccc(NC(=S)NC(=O)c2cccnc2)c([N+](=O)[O-])c1 | -17.6 | 5.17 µM [falling, partial curve] | 
CCn1ncc(/C=C/C(=O)Nc2c(C)nn(Cc3ccc(Cl)cc3Cl)c2C)c1C | 73.2 | 20.6 µM [rising, partial curve] | 20.6 µM [rising, single point]
COc1ccc(CNC(=O)[C@@H](C)NC(=O)[C@@H]2Cc3ccccc3CN2)cc1 | 3.56 | 0.58 µM [rising, single point] | 
COc1ccc(NC(=O)CSc2nnc(Cn3nnc4ccccc43)n2C)cc1 | 18 |  | 
CC(C(=O)N(C)C1CCS(=O)(=O)C1)N1C(=O)/C(=C/c2ccc(F)cc2)SC1=S (centres undefined) | -7.31 | 29.1 µM [falling, single point] | 
COCCCNC(=S)NNC(=O)c1cc(-c2ccncc2)nc2ccccc12 | -5.94 | 29.1 µM [falling, single point] | 

Compound | cell number change [%] | AC50 [1] | AC50 [2]
CC(=O)N1CCN(c2ccc(Oc3nnnn3-c3ccccc3)cc2)CC1 | -6.47 | 0.0058 µM [rising, full curve, poor fit] | 
O=C(OCC(=O)N1CCCC1)c1cncc(Br)c1 | -25.9 | 0.651 µM [falling, partial curve, poor fit] | 
CCN(CC)CCCOC(=O)C(c1ccccc1)c1ccccc1 | -10 | 6.51 µM [rising, single point] | 6.51 µM [rising, single point]
CC(C)N(CC#CCC1(O)c2ccccc2-c2ccccc21)CCO |  | 2.91 µM [falling, single point] | 
Cc1ccccc1C(O)c1cccnc1 (centres undefined) | -13 | 0.0731 µM [rising, full curve, poor fit] | 
CC(C)CN(C(=O)Cn1c(Cl)nc2c1c(=O)n(C)c(=O)n2C)C1CCS(=O)(=O)C1 (centres undefined) |  | 6.51 µM [falling, single point] | 6.51 µM [falling, single point]
CC[n+]1ccc(C(=O)NCc2ccccc2)cc1 | 78.6 |  | 
COCC(=O)N1CCC(n2nnc3cc(F)ccc32)CC1 | 4.11 | 0.13 µM [rising, full curve, poor fit] | 
CCC(C)NC(=O)CSc1ncnc2sccc12 (centres undefined) | -39.6 | 1.64 µM [falling, partial curve, poor fit] | 7.31 µM [falling, partial curve, poor fit]
CCOC(=O)C1C(=O)NC(N2CCN(CC)CC2)=NC1c1ccccc1 (centres undefined) | 6.31 | 23.1 µM [falling, partial curve] | 
CCn1c(C)cc2c(c1=O)C(c1ccccc1Br)C(C#N)=C(N)O2 (centres undefined) | -17.3 | 2.91 µM [rising, single point] | 0.461 µM [falling, full curve, poor fit]
CN(C)CCCNS(=O)(=O)c1cc(Cl)ccc1Cl | -26.5 | 5.17 µM [falling, partial curve] | 
CC(=O)N/C(=C/c1ccc(OS(=O)(=O)c2ccc(C)cc2)cc1)C(=O)NCCCO | -22.1 | 1.3 µM [falling, full curve, poor fit] | 2.06 µM [falling, full curve, poor fit]
O=C(NCCN1CCOCC1)/C(=C\c1ccc(F)cc1)NC(=O)c1ccccc1 | 38 | 29.1 µM [rising, single point] | 9.2 µM [rising, partial curve]
O=C1CCCC2=C1C(c1ccco1)Nc1ccc3ccccc3c12 (centres undefined) | -18.6 | 20.6 µM [falling, single point] | 
COc1ccc(OC)c(S(=O)(=O)N2CCCCC2C(=O)O)c1 (centres undefined) | -29.9 | 0.731 µM [falling, full curve] | 0.231 µM [falling, full curve, poor fit]
COc1ccc(/C=N/NC(=O)c2ccc3c(c2)OCO3)cc1 | 37 | 0.206 µM [rising, full curve, poor fit] | 25.9 µM [rising, single point]
CCNc1nc(SC)nc(N(C#N)CC(=O)OC)n1 | 46.3 | 5.17 µM [rising, single point] | 6.51 µM [rising, partial curve, poor fit]
Fc1ccc(/C=C2\CCCC3=C2Nc2ncnn2C3c2ccc(F)cc2)cc1 (centres undefined) | -42.1 | 0.731 µM [falling, full curve, poor fit] | 1.3 µM [falling, full curve, poor fit]

Compound | cell number change [%] | AC50 [1] | AC50 [2]
Cc1noc(C)c1S(=O)(=O)N1CCC(C(=O)c2ccccc2)CC1 | -21.3 |  | 
NNC(=O)Cn1nnc(-c2ccc(C(F)(F)F)cc2)n1 | 27.7 |  | 
O=C(OCc1ccc(O)cc1)c1c(-c2ccsc2)oc2ccc(N3CCOCC3)cc12 | -12.9 |  | 
Cc1cc(Nc2ccc(Cl)cc2)n2ncnc2n1 | -2.12 | 16.4 µM [falling, single point] | 
O=c1[nH]cnc(O)c1C(c1ccc2c(c1)OCO2)c1c(O)nc[nH]c1=O | -20 | 0.92 µM [falling, full curve, poor fit] | 
O=C(CN1C(=O)NC2(CCCc3ccccc32)C1=O)NCC(F)(F)F (centres undefined) | 11.3 | 5.8 µM [falling, single point] | 
Cc1nn(-c2ccccc2)c(N2CCCCC2)c1/C=N/O | -36.7 |  | 
Oc1ccc(/C=N/N(c2ccccc2)c2ccccc2)cc1O | 14.6 | 0.58 µM [falling, single point] | 
O=C(CSc1nnc(CNC(=O)c2cccs2)o1)NCc1ccc(F)cc1 | 1.76 | 1.16 µM [rising, full curve, poor fit] | 
CCOC(=O)C1(Cc2cccc(Cl)c2)CCCN(C(=O)CCSC)C1 (centres undefined) | -30.2 | 7.31 µM [falling, partial curve] | 5.17 µM [falling, full curve, poor fit]
Cc1cccc(N2CCN(C(=O)Cn3sc4nc(C)cc(C)c4c3=O)CC2C)c1 (centres undefined) | -60 | 0.0184 µM [falling, full curve, poor fit] | 20.6 µM [falling, partial curve, poor fit]
COc1ccccc1-n1c(=S)sc2c(=O)n(Cc3ccco3)c(SC)nc21 | -22.4 | 16.4 µM [rising, single point] | 
CCS(=O)(=O)N1CCN(c2ccccn2)CC1 | 1.65 |  | 
CC1=NN(C(N)=S)C(=O)C1N=Nc1cccc([N+](=O)[O-])c1 (centres undefined) | 45.1 |  | 29.1 µM [rising, single point]
CCCCNC(=O)c1cc2cccc([N+](=O)[O-])c2[nH]1 | 11.2 | 0.461 µM [rising, full curve] | 
CC1CCCC(NC(=O)COC(=O)c2ccc3ncsc3c2)C1C (centres undefined) | 29.2 | 6.51 µM [rising, partial curve, poor fit] | 
COCCn1c(CN(Cc2ccccc2)Cc2ccccc2)nc2c1c(=O)n(C)c(=O)n2C | 14.1 |  | 
O=C(CCS(=O)(=O)c1ccc(Cl)cc1)NCCc1c[nH]c2ccccc12 | 8.47 | 6.51 µM [rising, partial curve, poor fit] | 0.082 µM [rising, full curve, poor fit]

Random excerpt: two entries already listed
Compound | cell number change [%] | AC50 [1] | AC50 [2]
CCS(=O)(=O)N1CCN(c2ccccn2)CC1 | 1.65 |  | 
Cc1nn(-c2ccccc2)c(N2CCCCC2)c1/C=N/O | -36.7 |  | 
